In the assay the target is capsid consisting only of L1 (human papillomavirus, type not stated). In words: ELISA on immobilized L1-only capsid, purified antibody.

No constants are given. Whether binding was seen depends on the method and setting.

We go through 1 molecule from patent publication US20130337438A1.

B1: monoclonal antibody 13B (antibody, V domains shown)
VH: DVQLQESGPGLVKPSQSLSLSCTVTGYSITSDSAWNWIRQFPGNKLEWMGYITFSGSTNYNPSLKSRLSITRDTSKNQFFLQLNSVTTEDTATYYCTGPFLDYWGQGTTLTVSS
VL: DVVMTQTPLSLPVSLGDQATISCRSSLSLVLSNRITYLQWYLQKPGQSPKLLIYKVSNRFSGVPDRFSGSGSGTDFTLKISRVEAEDLGVYFCSQSSHFPWTFGGGTKLEIKR
As for B1, the binding entry is given as “no binding (tested: 250 ng/well)”.
